Experimental data as given in article PMC4678828, “Binding dynamics of a monomeric SSB protein to DNA: a single-molecule multi-process approach”.

Legend:
[1] = target: T1, A114R1 SsoSSB (MTSSL spin label) (Sulfolobus solfataricus) (UniProt Q97W73); test: EPR (PELDOR); conditions: 100 uM protein, 50 uM ssDNA, modulation depth increased; 50 mM Tris-HCl pH 7.6, 10 mM KCl, 5% glycerol, 0.1 mg/ml BSA, 5-50 nM DNA, 20 C (PIFE also 65 C); recombinant protein; protein details: MTSSL spin label at C114; single-stranded DNA
T1 sequence (looked up, limits assumed): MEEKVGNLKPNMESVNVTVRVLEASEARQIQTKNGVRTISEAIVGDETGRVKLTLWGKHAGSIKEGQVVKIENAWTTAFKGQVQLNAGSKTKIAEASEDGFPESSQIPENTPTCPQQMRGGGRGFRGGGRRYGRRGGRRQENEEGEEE

[2] = target: T2, A647-SsoSSB A114C (Sulfolobus solfataricus) (UniProt Q97W73); test: single-molecule FRET; conditions: 150 mM KCl, 10 nM protein, lower binding frequency; 50 mM Tris-HCl pH 7.6, 10 mM KCl, 5% glycerol, 0.1 mg/ml BSA, 5-50 nM DNA, 20 C (PIFE also 65 C); recombinant protein; protein details: Alexa Fluor 647 C2 maleimide at C114; label: 5' biotin, 3' Cy3; single-stranded DNA
T2 sequence (looked up, limits assumed): T1 sequence (looked up, limits assumed)

Sequence | binding result [1] | binding result [2]
TTTTTTTTTTTTT [dT13] | binds | –
CCCCCCCCCCC [dC11] | binds | –
CCCCCCCCCCCC [BidC12Cy3] | – | binds more weakly

For at least one entry, the source does not settle the construct or the ends of the probe. For part of these data: The comparison behind a weaker result is the experiment's own reference, which may not be listed here. Where a protein sequence is shown, tags need not be part of it. For part of these data: At least one verdict was read from the data and is not stated in words by the source.
